pEC50: −log10 of the molar value. Some of these results come from one statement about several compounds together.
Test system: several human rhinovirus strains (HRV-25, HRV-56, HRV-21, HRV-02, HRV-19, HRV-16, HRV-53, HRV-68, HRV-45, HRV-84, HRV-70, HRV-79, HRV-14)
Assay type: cell-based
Conditions: each of HRV-25, -56, -21, -02, -19, -16, -53, -68, -45, -84, -70, -79, -14; HeLa-OHIO cells

Structure (SMILES)	pEC50
CC(C)OC(=O)OCOP(=O)(OCOC(=O)OC(C)C)OC[C@@]1(CF)O[C@@H](n2ccc(=O)[nH]c2=O)[C@](C)(O)[C@@H]1OC(=O)C(N)C(C)C (some centres unmarked) [Compound 160]	> 6.00
CC(C)OC(=O)OCOP(=O)(OCOC(=O)OC(C)C)OC[C@@]1(CF)O[C@@H](n2ccc(=O)[nH]c2=O)[C@](C)(O)[C@@H]1O [Compound 44]	> 6.00

Reference: patent US10370401B2, “Substituted nucleosides, nucleotides and analogs thereof” (Alios BioPharma, Inc., priority 2013, dated 2019)
